# Results taken from publication PMC2743825.
# Sequences of proteins named here, by UniProt entry; tags and fusion partners are left off.
# UniProt P05205: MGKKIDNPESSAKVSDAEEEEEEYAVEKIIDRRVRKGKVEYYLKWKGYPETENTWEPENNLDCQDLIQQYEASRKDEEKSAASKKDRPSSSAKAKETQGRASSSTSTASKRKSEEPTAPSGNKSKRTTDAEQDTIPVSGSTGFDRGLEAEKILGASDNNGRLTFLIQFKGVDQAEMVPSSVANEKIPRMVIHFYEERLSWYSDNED
# No constants are given. Whether binding was seen depends on the method and setting. For some assays here: Binding seen in cells or lysates may run through a third protein. Some results given as binding are weak or reduced against the parent protein; the word gives no strength.
# Experiments:
# [1] = target: FLAG-tagged HP1a (Drosophila melanogaster) (UniProt P05205); test: condition: only in the soluble nuclear extract (nucleoplasmic fraction), not in the total nuclear lysate; co-IP; anti-FLAG immunopurification (protein G Dynabeads, elution with 3x FLAG peptide) from soluble nuclear extract (nucleoplasmic fraction) of transfected S2 cells; western blot
# [2] = target: Heterochromatin Protein 1 (HP1a) (Drosophila melanogaster) (UniProt P05205); test: co-IP; immunoprecipitation with monoclonal C1A9 anti-HP1a antibody (50 µg for 1 ml of hnRNP extract), western blot of the precipitate
# [3] = target: FLAG-tagged HP1a (Drosophila melanogaster) (UniProt P05205); test: native gel or EMSA; anti-FLAG immunopurified fractions of nuclear lysates of FLAG-HP1a transfected S2 cells resolved by 6% native-PAGE, before and after RNAse A treatment; western blot with anti-FLAG, anti-HRB87F, anti-DDP1, anti-PEP
# [4] = target: FLAG-tagged HP1a (Drosophila melanogaster) (UniProt P05205); test: co-IP; anti-FLAG immunopurification (protein G Dynabeads, elution with 3x FLAG peptide) from total nuclear lysate (sonicated, soluble chromatin fraction) of transfected S2 cells; lysis buffer 50 mM Tris-HCl, 150 mM NaCl, 0.5% NP40; western blot
binding [1],binding [2],binding [3],binding [4],Binder
no binding,binds,binds,binds,"PEP (Peptide on Ecdysone Puffs) (protein, UniProt P41073 1-716) MVSVKVNGNPQNRLVNNAKVNGNMAFRGNQNRNRNFGGGNNNYGGPMGANRMGGMNMSPWESQNPGGGQFGNNMRQGGGQMNAQAINLANNLLNNLFRNQNPPSLLDLPRGGGGMGNRNQRGGPMVSRGGGAGNRLNNRRGQGGGFQNRGATGSGPKPPPKQGGGGIRKQNAFDRAKKLLAKNANQNKKKEPTPGEKKIESPTKESPYASVPNDMFYCHLCKKHMWDANSFENHIKGRTHLMMREGIEESYRLKANMIRQEAKIAEQLKSIEFDRLKRMGKSKQRQLDYCTMCDLNFHGHISTHRKSEGHLQLKKFLHPKCIECNKEFATRIDYDTHLLSAEHLKKAAENNTKVGERKRQTLPISTEEEETRDLRLPQKRKKKPVKKEGEAADGEAKKEGAGDGEGAEGDEAEGEEAKEGEEAADETKEGDELNESQEEEEVALPVDPEDCILDFNDGDEIPSEVDTRLPKYNWQRAVGPGLISKLECYECSVCSKFFDTEVTAEIHSRTATHHRNFLKFINEKSSDTKIAQKRAAAALEENERKKRKVEEAEAPAAEGAAEETTEGAEGELYDPSEATGDDEDVEMVDDNAEGEGEGEGDEEAEAEVEEDGAGQDNGEEEMEAQEEEGQEGEQEPEPEPAPVQTPAPAEPAPPAKTPAKTPTKAAAPAAVASPAAAATSADASPSPAKKATPARAAAGAKATPQRQRARGRYNRY"
no binding,binds,binds,binds,"HRB87F (protein, UniProt P48810 1-385) MAEQNDSNGNYDDGEEITEPEQLRKLFIGGLDYRTTDDGLKAHFEKWGNIVDVVVMKDPKTKRSRGFGFITYSQSYMIDNAQNARPHKIDGRTVEPKRAVPRQEIDSPNAGATVKKLFVGGLRDDHDEECLREYFKDFGQIVSVNIVSDKDTGKKRGFAFIEFDDYDPVDKIILQKTHSIKNKTLDVKKAIAKQDMDRQGGGGGRGGPRAGGRGGQGDRGQGGGGWGGQNRQNGGGNWGGAGGGGGFGNSGGNFGGGQGGGSGGWNQQGGSGGGPWNNQGGGNGGWNGGGGGGYGGGNSNGSWGGNGGGGGGGGGFGNEYQQSYGGGPQRNSNFGNNRPAPYSQGGGGGGFNKGNQGGGQGFAGNNYNTGGGGQGGNMGGGNRRY"
